Assay results as given in article PMC7465220.
No constants are given. Whether binding was seen depends on the method and setting. Binding seen in cells or lysates may run through a third protein. Some entries that bind do so weakly or less than the wild type.

The chains behind the UniProt entries cited, without tags or fusion partners.
UniProt Q86VI3: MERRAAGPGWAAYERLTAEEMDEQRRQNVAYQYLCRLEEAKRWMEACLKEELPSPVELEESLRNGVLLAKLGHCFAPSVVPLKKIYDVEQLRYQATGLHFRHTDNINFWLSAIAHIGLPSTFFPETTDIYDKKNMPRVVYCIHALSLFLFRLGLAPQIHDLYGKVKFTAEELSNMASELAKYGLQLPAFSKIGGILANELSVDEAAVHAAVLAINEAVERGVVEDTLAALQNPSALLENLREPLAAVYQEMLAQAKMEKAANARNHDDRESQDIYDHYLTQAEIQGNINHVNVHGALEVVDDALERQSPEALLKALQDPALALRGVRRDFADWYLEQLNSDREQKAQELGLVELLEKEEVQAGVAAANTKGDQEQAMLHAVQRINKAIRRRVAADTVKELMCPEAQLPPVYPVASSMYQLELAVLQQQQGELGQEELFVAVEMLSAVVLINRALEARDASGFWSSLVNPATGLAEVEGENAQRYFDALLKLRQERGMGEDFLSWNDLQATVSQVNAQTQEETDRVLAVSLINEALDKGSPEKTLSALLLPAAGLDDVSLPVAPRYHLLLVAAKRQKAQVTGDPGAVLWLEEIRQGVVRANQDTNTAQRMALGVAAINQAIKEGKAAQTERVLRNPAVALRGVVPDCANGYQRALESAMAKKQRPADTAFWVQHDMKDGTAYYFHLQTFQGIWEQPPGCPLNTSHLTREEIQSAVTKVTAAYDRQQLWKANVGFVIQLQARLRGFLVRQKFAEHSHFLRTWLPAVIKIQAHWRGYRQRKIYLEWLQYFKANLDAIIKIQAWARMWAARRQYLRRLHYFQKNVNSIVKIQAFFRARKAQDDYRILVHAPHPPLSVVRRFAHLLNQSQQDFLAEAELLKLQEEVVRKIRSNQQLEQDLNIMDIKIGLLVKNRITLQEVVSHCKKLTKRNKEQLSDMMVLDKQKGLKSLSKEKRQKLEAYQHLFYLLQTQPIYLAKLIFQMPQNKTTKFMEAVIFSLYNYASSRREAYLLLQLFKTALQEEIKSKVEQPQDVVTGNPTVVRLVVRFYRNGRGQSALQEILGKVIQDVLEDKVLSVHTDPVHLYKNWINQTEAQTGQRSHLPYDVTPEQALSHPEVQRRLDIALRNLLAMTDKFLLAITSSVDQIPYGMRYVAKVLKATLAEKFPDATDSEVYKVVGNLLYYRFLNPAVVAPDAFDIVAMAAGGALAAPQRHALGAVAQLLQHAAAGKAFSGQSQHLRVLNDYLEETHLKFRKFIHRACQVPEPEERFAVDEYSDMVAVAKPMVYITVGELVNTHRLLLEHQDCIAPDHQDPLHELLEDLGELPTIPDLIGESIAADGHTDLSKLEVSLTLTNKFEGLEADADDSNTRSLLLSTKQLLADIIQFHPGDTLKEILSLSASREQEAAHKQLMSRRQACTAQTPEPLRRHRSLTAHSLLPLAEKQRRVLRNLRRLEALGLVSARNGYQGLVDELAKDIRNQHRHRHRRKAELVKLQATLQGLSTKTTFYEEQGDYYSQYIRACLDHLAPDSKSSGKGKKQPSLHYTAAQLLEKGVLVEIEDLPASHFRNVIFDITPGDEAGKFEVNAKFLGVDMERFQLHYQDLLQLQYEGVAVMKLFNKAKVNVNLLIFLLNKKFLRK
UniProt P60953: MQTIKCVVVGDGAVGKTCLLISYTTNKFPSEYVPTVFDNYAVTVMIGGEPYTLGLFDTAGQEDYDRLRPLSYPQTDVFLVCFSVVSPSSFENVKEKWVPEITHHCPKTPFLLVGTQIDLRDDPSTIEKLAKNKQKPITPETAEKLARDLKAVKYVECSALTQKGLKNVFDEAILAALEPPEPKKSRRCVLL
UniProt P35222: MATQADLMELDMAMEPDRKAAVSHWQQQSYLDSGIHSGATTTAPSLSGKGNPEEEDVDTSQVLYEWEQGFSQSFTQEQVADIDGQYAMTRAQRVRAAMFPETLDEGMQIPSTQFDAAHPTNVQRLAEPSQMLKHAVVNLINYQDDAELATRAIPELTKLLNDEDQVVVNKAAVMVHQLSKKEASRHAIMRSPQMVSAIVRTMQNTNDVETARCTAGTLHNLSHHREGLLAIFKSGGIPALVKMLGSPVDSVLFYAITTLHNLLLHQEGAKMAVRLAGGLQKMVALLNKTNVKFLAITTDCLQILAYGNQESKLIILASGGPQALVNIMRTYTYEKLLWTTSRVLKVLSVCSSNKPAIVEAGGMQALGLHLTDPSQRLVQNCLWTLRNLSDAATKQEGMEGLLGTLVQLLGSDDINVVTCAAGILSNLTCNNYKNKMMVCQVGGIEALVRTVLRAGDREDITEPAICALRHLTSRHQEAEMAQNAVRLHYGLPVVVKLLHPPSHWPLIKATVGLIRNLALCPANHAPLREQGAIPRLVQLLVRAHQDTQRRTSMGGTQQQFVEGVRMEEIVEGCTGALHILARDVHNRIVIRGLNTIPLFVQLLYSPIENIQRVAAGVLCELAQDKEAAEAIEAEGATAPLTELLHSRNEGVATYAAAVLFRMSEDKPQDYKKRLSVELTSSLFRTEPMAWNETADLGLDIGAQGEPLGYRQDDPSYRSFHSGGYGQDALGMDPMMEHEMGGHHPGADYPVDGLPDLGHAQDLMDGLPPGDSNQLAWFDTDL

Legend:
[1] = biological target: myc-tagged IQGAP3 (IQ-domain GTPase activating protein 3) (human) (UniProt Q86VI3); experiment: co-IP; lysates of 293T cells 48 h after transfection; anti-c-myc (9E10), anti-E-cadherin (HECD-1) or anti-β-catenin (14) with rec-Protein G (or A) Sepharose 4B overnight at 4 °C; beads washed five times with 1 x TBS; immunoblot
[2] = biological target: active Cdc42 (human (endogenous in 293T)) (UniProt P60953); experiment: pull-down; extracts (2 mg) of 293T cells transfected with pcDNA3.1-myc/His-IQGAP3 incubated with GST-Pak1-p21 Binding Domain (Cdc42, Rac1), GST-Rhotekin-Rho Binding Domain (Rho) or GST-Raf1-Ras Binding Domain (Ras) and immobilised glutathione, 4 °C, 1 h; IQGAP3 in the precipitate of the active GTPase detected with anti-myc

binding [1]	binding [2]	Substance
binds		β-catenin (from UniProt P35222 1-781)
	binds	myc-tagged IQGAP3 (IQ-domain GTPase activating protein 3) (from UniProt Q86VI3 1-1631)
